Measurements reported in PubChem BioAssay AID504774 (Drosophila RNAi Screening Center, 2011).
In all, the deposit lists about 23,000 reagents; below is an unselected part of those with a known target gene and a result. 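Values are quantile-normalised luminescence on an arbitrary scale; higher means more cells surviving MMS.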 Reagents against one gene are numbered here. Names joined by + are all predicted targets of the reagent. Reagent sequences are not shown.

Aim: 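Knock-downs that shift viability of MMS-exposed cells relative to untreated ones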 (primary screen)
Cells: Drosophila Kc167 cells
Reagent: long dsRNA against Drosophila genes, about 0.25 µg dsRNA per well
Timing: about 6 days: 3 days knock-down, then 3 days with or without MMS
Challenge: methyl methanesulphonate 0.004% (w/v) for 3 days after knock-down
Measured: 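ATP-dependent luminescence as a measure of live cells in MMS-exposed wells, quantile normalised within each plate, with replicate values also given as a mean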
Scale: mean viability with MMS and viability with MMS: higher = more surviving cells after MMS

| Target gene | reagent | mean viability with MMS | viability with MMS, replicate 1 | viability with MMS, replicate 2 |
| --- | --- | --- | --- | --- |
| Egfrap | 1 | 3.47e6 | 3.92e6 | 3.95e6 |
| Egfrap | 2 | 3.46e6 | 3.87e6 | 3.98e6 |
| CG14074 | 1 | 3.33e6 | 3.71e6 | 3.78e6 |
| CG14259 | 1 | 3.56e6 | 4.06e6 | 4.02e6 |
| Jig | 1 | 3.55e6 | 3.87e6 | 4.19e6 |
| CG13231 | 1 | 3.50e6 | 3.93e6 | 3.98e6 |
| CG11089 + CG31381 | 1 | 3.62e6 | 4.15e6 | 4.05e6 |
| CG11089 + CG31381 | 2 | 3.64e6 | 4.13e6 | 4.09e6 |
| Vha68-1 | 1 | 3.72e6 | 4.23e6 | 4.12e6 |
| veil | 1 | 3.64e6 | 4.03e6 | 4.25e6 |
| CG3534 | 1 | 3.48e6 | 3.88e6 | 4.00e6 |
| Tengl3 | 1 | 3.63e6 | 4.11e6 | 4.07e6 |
| phr | 1 | 3.54e6 | 4.06e6 | 3.96e6 |
| cta | 1 | 3.50e6 | 3.84e6 | 4.04e6 |
| atms | 1 | 3.24e6 | 3.67e6 | 3.67e6 |
| Sdc | 1 | 3.46e6 | 3.92e6 | 3.92e6 |
| srp | 1 | 3.52e6 | 3.92e6 | 4.06e6 |
| srp | 2 | 2.62e6 | 3.54e6 | 3.43e6 |
| srp | 3 | 2.75e6 | 3.60e6 | 2.42e6 |
| CG8765 | 1 | 3.22e6 | 3.63e6 | 3.66e6 |
| CG8765 | 2 | 3.41e6 | 3.88e6 | 3.88e6 |
| LManII | 1 | 3.66e6 | 4.35e6 | 4.01e6 |
| frj | 1 | 3.39e6 | 3.70e6 | 3.85e6 |
| nenya | 1 | 3.58e6 | 4.01e6 | 4.11e6 |
| Rga | 1 | 3.69e6 | 4.22e6 | 4.11e6 |
| Ldh | 1 | 3.52e6 | 4.36e6 | 3.63e6 |
| CG32305 | 1 | 3.62e6 | 4.08e6 | 4.09e6 |
| CG17350 | 1 | 3.62e6 | 4.16e6 | 4.06e6 |
| CG1910 | 1 | 3.59e6 | 4.09e6 | 4.04e6 |
| lncRNA:CR32658 | 1 | 3.65e6 | 4.19e6 | 4.04e6 |
| CG5665 | 1 | 3.65e6 | 4.23e6 | 4.02e6 |
| Gem4b + Gem4c + Glos | 1 | 3.65e6 | 4.08e6 | 4.19e6 |

11 consecutive reagents from above:
| Target gene | reagent | mean viability with MMS | viability with MMS, replicate 1 | viability with MMS, replicate 2 |
| --- | --- | --- | --- | --- |
| Egfrap | 2 | 3.46e6 | 3.87e6 | 3.98e6 |
| CG14074 | 1 | 3.33e6 | 3.71e6 | 3.78e6 |
| CG14259 | 1 | 3.56e6 | 4.06e6 | 4.02e6 |
| Jig | 1 | 3.55e6 | 3.87e6 | 4.19e6 |
| CG13231 | 1 | 3.50e6 | 3.93e6 | 3.98e6 |
| CG11089 + CG31381 | 1 | 3.62e6 | 4.15e6 | 4.05e6 |
| CG11089 + CG31381 | 2 | 3.64e6 | 4.13e6 | 4.09e6 |
| Vha68-1 | 1 | 3.72e6 | 4.23e6 | 4.12e6 |
| veil | 1 | 3.64e6 | 4.03e6 | 4.25e6 |
| CG3534 | 1 | 3.48e6 | 3.88e6 | 4.00e6 |
| Tengl3 | 1 | 3.63e6 | 4.11e6 | 4.07e6 |

Continued.
| Target gene | reagent | mean viability with MMS | viability with MMS, replicate 1 | viability with MMS, replicate 2 |
| --- | --- | --- | --- | --- |
| morgue | 1 | 3.51e6 | 3.91e6 | 4.04e6 |
| Cpn | 1 | 3.46e6 | 3.94e6 | 3.90e6 |
| CG11857 | 1 | 3.59e6 | 4.09e6 | 4.06e6 |
| MFS14 | 1 | 3.36e6 | 3.79e6 | 3.85e6 |
| CG3301 | 1 | 3.49e6 | 3.99e6 | 3.93e6 |
| CG12194 | 1 | 3.56e6 | 4.01e6 | 4.04e6 |
| CG18682 (retired record) | 1 | 3.38e6 | 3.87e6 | 3.72e6 |
| CG18682 (retired record) | 2 | 3.32e6 | 3.95e6 | 3.79e6 |
| CG13560 | 1 | 3.66e6 | 4.34e6 | 3.96e6 |
| Gdap1 | 1 | 3.48e6 | 3.94e6 | 3.96e6 |
| CG32625 | 1 | 3.63e6 | 4.11e6 | 4.04e6 |
| H15 | 1 | 3.46e6 | 3.96e6 | 3.90e6 |
| H15 | 2 | 3.48e6 | 3.96e6 | 3.96e6 |
| Jon25Bii | 1 | 3.52e6 | 3.79e6 | 4.17e6 |
| CG31088 | 1 | 3.57e6 | 3.95e6 | 4.14e6 |
| CG10864 | 1 | 3.47e6 | 4.01e6 | 3.88e6 |
| CG6753 | 1 | 3.52e6 | 4.01e6 | 4.00e6 |
| CG10062 | 1 | 3.80e6 | 4.25e6 | 4.34e6 |
| CG10062 | 2 | 3.77e6 | 4.24e6 | 4.16e6 |
| Ugt37C2 | 1 | 3.51e6 | 3.95e6 | 4.02e6 |
| Mst84Dd | 1 | 3.47e6 | 3.81e6 | 4.08e6 |
| tgy | 1 | 3.51e6 | 4.04e6 | 3.94e6 |
| CG14692 | 1 | 3.52e6 | 4.03e6 | 3.97e6 |
| CG17625 | 1 | 3.62e6 | 4.18e6 | 4.04e6 |
| CDase | 1 | 3.55e6 | 4.10e6 | 3.95e6 |
| CREG | 1 | 3.51e6 | 4.03e6 | 3.93e6 |
| Taldo | 1 | 3.72e6 | 4.28e6 | 4.22e6 |
| CG17784 | 1 | 3.54e6 | 4.17e6 | 3.85e6 |
| CG14537 | 1 | 3.58e6 | 4.07e6 | 4.07e6 |
| CaBP1 | 1 | 3.66e6 | 4.16e6 | 4.20e6 |
| Cyp4d20 | 1 | 3.57e6 | 4.10e6 | 3.98e6 |
| LeuRS-m | 1 | 3.54e6 | 4.04e6 | 3.98e6 |
| CG13197 | 1 | 3.69e6 | 4.07e6 | 4.12e6 |
| CG14823 | 1 | 3.63e6 | 4.22e6 | 4.02e6 |
| CG31922 | 1 | 3.44e6 | 3.82e6 | 4.03e6 |
| Mal-A1 | 1 | 3.57e6 | 3.97e6 | 4.11e6 |
